# Data published in publication PMC12866797, “Targeting DESI2 as a Novel Therapeutic Strategy for JAK2‐Mutant Leukemias” (Advanced Science, 2025).
# Amino acid sequences for entries named in this document (tags omitted). A change or cut given only in a name is not applied to a line headed by its entry.
# UniProt O60674: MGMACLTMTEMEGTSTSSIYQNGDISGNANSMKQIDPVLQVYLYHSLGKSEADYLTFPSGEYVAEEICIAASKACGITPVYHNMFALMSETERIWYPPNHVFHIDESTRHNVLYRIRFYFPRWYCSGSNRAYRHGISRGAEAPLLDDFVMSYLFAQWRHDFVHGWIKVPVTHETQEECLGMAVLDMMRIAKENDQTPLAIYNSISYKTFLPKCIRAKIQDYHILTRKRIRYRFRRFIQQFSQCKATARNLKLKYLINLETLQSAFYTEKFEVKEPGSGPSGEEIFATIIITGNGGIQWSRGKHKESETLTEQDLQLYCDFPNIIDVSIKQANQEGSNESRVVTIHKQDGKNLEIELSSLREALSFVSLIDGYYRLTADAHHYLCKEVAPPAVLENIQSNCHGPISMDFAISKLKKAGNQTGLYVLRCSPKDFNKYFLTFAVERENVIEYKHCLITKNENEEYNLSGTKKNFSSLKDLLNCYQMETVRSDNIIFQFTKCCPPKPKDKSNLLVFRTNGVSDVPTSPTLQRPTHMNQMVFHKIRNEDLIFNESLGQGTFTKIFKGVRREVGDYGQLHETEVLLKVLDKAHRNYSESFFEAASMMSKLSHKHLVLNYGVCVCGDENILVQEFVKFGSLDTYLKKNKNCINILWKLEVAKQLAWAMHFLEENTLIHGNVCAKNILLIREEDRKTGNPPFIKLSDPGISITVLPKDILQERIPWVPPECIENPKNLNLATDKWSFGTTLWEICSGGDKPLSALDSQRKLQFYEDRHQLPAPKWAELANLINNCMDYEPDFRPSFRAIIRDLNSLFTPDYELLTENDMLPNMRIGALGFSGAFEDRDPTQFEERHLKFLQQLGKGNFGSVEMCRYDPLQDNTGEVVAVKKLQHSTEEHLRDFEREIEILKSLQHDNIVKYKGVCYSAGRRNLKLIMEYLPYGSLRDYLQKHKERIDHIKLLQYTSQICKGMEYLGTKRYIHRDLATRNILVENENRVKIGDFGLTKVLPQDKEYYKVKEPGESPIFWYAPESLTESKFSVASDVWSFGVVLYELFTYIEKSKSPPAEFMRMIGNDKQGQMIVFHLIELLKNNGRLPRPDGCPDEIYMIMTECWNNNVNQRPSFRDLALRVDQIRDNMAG
# UniProt Q9D291: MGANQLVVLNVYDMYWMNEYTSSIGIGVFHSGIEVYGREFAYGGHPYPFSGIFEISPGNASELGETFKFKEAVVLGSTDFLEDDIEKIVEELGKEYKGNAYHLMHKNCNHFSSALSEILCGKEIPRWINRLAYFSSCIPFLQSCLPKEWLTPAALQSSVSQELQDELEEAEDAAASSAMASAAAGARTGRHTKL
# UniProt Q9BSY9: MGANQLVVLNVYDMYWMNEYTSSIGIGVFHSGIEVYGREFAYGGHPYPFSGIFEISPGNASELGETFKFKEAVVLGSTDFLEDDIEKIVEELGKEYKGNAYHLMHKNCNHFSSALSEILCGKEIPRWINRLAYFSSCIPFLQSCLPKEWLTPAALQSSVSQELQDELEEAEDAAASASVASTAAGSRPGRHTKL
# UniProt P08238: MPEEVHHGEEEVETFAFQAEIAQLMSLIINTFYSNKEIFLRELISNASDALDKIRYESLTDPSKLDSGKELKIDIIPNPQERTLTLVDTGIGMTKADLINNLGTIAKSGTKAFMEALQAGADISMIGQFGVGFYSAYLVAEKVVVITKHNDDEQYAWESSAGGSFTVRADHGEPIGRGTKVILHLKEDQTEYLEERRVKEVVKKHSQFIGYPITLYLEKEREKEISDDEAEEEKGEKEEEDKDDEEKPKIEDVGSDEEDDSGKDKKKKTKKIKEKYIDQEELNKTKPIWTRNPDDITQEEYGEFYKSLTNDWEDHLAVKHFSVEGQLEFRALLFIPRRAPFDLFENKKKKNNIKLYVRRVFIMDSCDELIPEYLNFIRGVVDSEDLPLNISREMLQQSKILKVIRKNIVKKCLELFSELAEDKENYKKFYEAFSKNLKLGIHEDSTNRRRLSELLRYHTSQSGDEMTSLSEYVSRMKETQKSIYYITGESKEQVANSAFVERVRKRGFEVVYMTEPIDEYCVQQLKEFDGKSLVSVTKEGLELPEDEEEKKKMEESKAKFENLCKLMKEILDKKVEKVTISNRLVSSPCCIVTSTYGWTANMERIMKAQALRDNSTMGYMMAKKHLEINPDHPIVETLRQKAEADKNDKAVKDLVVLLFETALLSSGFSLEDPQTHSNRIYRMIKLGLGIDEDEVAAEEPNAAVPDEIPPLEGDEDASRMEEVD
# UniProt Q62120: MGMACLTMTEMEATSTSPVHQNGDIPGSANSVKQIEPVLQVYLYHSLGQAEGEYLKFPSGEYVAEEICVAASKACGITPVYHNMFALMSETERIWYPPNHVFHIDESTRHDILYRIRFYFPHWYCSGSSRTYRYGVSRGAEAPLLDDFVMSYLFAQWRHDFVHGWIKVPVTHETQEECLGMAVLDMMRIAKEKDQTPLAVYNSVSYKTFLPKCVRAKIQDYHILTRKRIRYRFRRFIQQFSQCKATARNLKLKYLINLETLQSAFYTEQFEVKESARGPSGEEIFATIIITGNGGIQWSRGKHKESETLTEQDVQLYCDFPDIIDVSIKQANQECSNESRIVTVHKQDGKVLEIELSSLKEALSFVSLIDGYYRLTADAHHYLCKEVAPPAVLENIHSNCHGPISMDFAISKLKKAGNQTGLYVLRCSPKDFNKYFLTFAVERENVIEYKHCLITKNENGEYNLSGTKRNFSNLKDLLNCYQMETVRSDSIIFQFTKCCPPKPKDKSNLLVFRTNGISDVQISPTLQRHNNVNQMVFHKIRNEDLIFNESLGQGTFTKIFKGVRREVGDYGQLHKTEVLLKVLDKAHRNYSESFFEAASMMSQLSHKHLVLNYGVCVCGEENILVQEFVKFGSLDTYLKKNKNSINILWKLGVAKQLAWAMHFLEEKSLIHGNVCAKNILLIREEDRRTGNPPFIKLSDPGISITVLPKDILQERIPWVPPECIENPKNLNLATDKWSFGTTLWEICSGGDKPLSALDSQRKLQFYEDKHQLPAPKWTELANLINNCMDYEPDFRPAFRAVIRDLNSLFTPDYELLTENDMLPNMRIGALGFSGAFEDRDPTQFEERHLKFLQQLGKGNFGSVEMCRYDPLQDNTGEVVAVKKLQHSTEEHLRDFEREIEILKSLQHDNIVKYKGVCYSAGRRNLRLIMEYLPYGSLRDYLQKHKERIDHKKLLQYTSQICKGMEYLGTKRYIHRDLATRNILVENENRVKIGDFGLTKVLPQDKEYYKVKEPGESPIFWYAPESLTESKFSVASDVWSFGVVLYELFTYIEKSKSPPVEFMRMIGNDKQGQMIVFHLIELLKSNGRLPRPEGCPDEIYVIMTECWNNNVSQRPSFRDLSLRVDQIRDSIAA
# These are yes or no findings as the source states them, for the method shown. In cells and extracts the contact can be indirect. Some binding calls cover weakened binding; strength is not graded here.
# Assays:
# [1] = target: JAK2-V617F (endogenous, HEL cells) (human (endogenous in HEL)) (UniProt O60674); experiment: co-IP; endogenous proteins, HEL lysate; reciprocal IP with anti-JAK2 or anti-DESI2 antibodies; immunoblot
# [2] = target: FLAG-tagged JAK2-V617F (HEK293T) (UniProt O60674); experiment: co-IP; HEK293T cells transfected with FLAG-JAK2-V617F, lysed 48 h after transfection; reciprocal IP with FLAG IgG beads or anti-DESI2 antibody; immunoblot
# [3] = target: DESI2 (endogenous, Ba/F3 cells) (mouse (endogenous in Ba/F3)) (UniProt Q9D291); experiment: co-IP; Ba/F3-wt and Ba/F3-JAK2-V617F isogenic lines; co-IP using DESI2 antibodies; DESI2 levels normalised between the two lines
Substance,binding [1],binding [2],binding [3]
"DESI2 (endogenous, human cell lines) (from UniProt Q9BSY9 1-194) (enzyme)",binds,binds,–
"HSP90AB1 (endogenous, HEL cells) (from UniProt P08238 1-724)",binds,–,–
wild-type JAK2 of Ba/F3-wt cells (from UniProt Q62120 1-1132),–,–,no binding
